Test results reported in PubChem BioAssay AID1159569 (Broad Institute, 2015).
The inconclusive results got no clear call from the source; some entries with a clear call stand among them for comparison. Active and inactive are the calls of the source. No rule for the calls is given here.

Test: HepG2 cell cytotoxicity, dose response, cytotoxicity control, plate reader, dry powder samples (AID 1159569)
Details: HepG2 cytotoxicity counterscreen; at 50 µM (top of the series) unless noted

SMILES | activity change, negative = cytotoxicity
O=C(c1ccccc1F)N1CC(=O)N2[C@H](C1)[C@@H](c1ccc(-c3ccc(F)cc3)cc1)[C@@H]2CO | inconclusive: -82.8%
Cc1ccc(S(=O)(=O)N(C)C[C@@H]2OCc3ccccc3-c3c(n(C)c4ccccc34)C(=O)N([C@@H](C)CO)C[C@@H]2C)cc1 | inconclusive: -38.7%
O=C(C1CCCCC1)N1[C@H](CO)[C@@H](c2ccccc2)C12CN(Cc1cccc(Cl)c1)C2 | inconclusive: -97.1%
C[C@@H]1CN([C@@H](C)CO)C(=O)c2cccc(NC(=O)Nc3ccccc3)c2O[C@@H]1CN(C)C(=O)Nc1ccccc1 | inconclusive: -43.6%
COc1ccc2c3c(n(C)c2c1)[C@@H](CO)N(CC1CCCCC1)CC31CCN(Cc2nccs2)CC1 | inconclusive: -67%
COc1ccccc1S(=O)(=O)N(C)C[C@@H]1OCc2ccccc2-c2c(n(C)c3ccccc23)C(=O)N([C@@H](C)CO)C[C@@H]1C | inactive: -23.5%
COc1cccc(C#Cc2ccc([C@H]3[C@@H](CO)N(C(=O)C4CCCC4)[C@H]3C#N)cc2)c1 | inconclusive: -72%
COc1ccc2c3c(n(C)c2c1)[C@H](CO)N(CC1CCCCC1)CC31CCN(Cc2nccs2)CC1 | inconclusive: -0.293% [at 16 µM]
CCCNC(=O)c1cc2c(c(-c3cccc(-c4cc5ccccc5o4)c3)n1)[C@H](CCO)N(C(=O)NC(C)C)C2 | inactive: -31.5%
COc1ccc2c3c(n(C)c2c1)[C@@H](CO)N(C(=O)Nc1ccc(F)cc1)CC31CCN(Cc2ccccn2)CC1 | inconclusive: -80.7%
C[C@H](CO)N1C[C@H](C)[C@@H](CN(C)CC2CCCC2)Oc2ncc(C#CCc3ccccc3)cc2C1=O | inconclusive: -38.6%
COc1ccc(S(=O)(=O)Nc2ccc3c(c2)CC(=O)N([C@@H](C)CO)C[C@H](C)[C@H](CN(C)S(=O)(=O)c2ccc(C)cc2)O3)cc1 | inactive: -23.3%
C[C@@H]1CN([C@@H](C)CO)C(=O)c2cccc(NC(=O)Nc3ccc4c(c3)OCO4)c2O[C@@H]1CN(C)C(=O)Nc1ccc2c(c1)OCO2 | inactive: -9.01%
COc1ccc(NC(=O)N2CC3(C2)CN(C(=O)C2CCC2)[C@H](CO)c2c3c3ccc(OC)cc3n2C)cc1 | inactive: -15.6%
CC(C)(C)[S@@](=O)N1Cc2cc(C(=O)NCCc3ccncc3)nc(-c3cccc(-c4ccccc4)c3)c2[C@H]1CCO | inconclusive: -1.57% [at 16 µM]
Cc1ccccc1S(=O)(=O)N(C)C[C@@H]1OCc2ccccc2-c2c(n(C)c3ccccc23)C(=O)N([C@@H](C)CO)C[C@@H]1C | inconclusive: -44.8%
CCS(=O)(=O)N1CCC2(CC1)CN(S(=O)(=O)c1ccc(C)cc1)[C@@H](CO)c1[nH]c3cc(OC)ccc3c12 | inconclusive: -40.7%
CN(C)C(=O)c1cccc(-c2cccc(-c3nc(C(=O)NC4CCCCC4)cc4c3[C@H](CCO)N([S@@](=O)C(C)(C)C)C4)c2)c1 | inconclusive: 6.19% [at 16 µM]
C[C@H](CO)N1C[C@H](C)[C@@H](CN(C)Cc2ccc3c(c2)OCO3)Oc2ccc(NC(=O)Nc3ccc(C(F)(F)F)cc3)cc2CC1=O | inconclusive: -98.9%
N#C[C@H]1[C@@H](c2ccc(C#Cc3ccccc3F)cc2)[C@@H](CO)N1C(=O)C1CCCCC1 | inconclusive: -66.3%
C[C@H](CO)N1C[C@H](C)[C@@H](CN(C)CC2CC2)Oc2ccc(NC(=O)Nc3cccc4ccccc34)cc2CC1=O | inconclusive: -69.3%

Structures from the list above that contain fluorine, in the order listed:
SMILES | activity change, negative = cytotoxicity
O=C(c1ccccc1F)N1CC(=O)N2[C@H](C1)[C@@H](c1ccc(-c3ccc(F)cc3)cc1)[C@@H]2CO | inconclusive: -82.8%
COc1ccc2c3c(n(C)c2c1)[C@@H](CO)N(C(=O)Nc1ccc(F)cc1)CC31CCN(Cc2ccccn2)CC1 | inconclusive: -80.7%
C[C@H](CO)N1C[C@H](C)[C@@H](CN(C)Cc2ccc3c(c2)OCO3)Oc2ccc(NC(=O)Nc3ccc(C(F)(F)F)cc3)cc2CC1=O | inconclusive: -98.9%
N#C[C@H]1[C@@H](c2ccc(C#Cc3ccccc3F)cc2)[C@@H](CO)N1C(=O)C1CCCCC1 | inconclusive: -66.3%
